Measurements reported in PubChem BioAssay AID1508588 (Peter MacCallum Cancer Centre, 2020).

Purpose: 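Knock-downs boosting vemurafenib effects on melanoma cell growth or lactate release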 (primary screen)
Cell system: human WM266.4 melanoma cells (BRAF V600 mutant)
Reagent: siRNA pool against human genes, 40 nM
Time to read-out: 96 h from transfection to read-out
Challenge: vemurafenib 300 nM (about IC25), added 48 h after transfection, for 48 h; comparison arm got DMSO vehicle only
Measurement: 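Cell gain (DAPI nuclei at end minus before drug, mean of two replicates) and medium lactate by absorbance per cell, both as ratio to non-targeting siRNA, also grouped into fold-change classes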
Direction: cell gain with vemurafenib: higher = more cell gain than with non-targeting siRNA; lactate per cell with vemurafenib: higher = more lactate made per cell
Rule for the call: 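Enhancement is called by pairing each knock-down's vehicle-arm and drug-arm fold-change classes for viability or glycolysis; which class combinations qualify is not given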
Calls: active = enhances vemurafenib effect; inactive = no enhancement seen
Here is a random part of about 18,000 reagents tested. Over the whole deposit, 790 (4.4%) got an active call. 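Calls rest on a combination of fold-change classes in drug and vehicle arms, not all shown here.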 Reagents against one gene are numbered here.

After knock-down of RHBG (GeneID 57127), the screen gave cell gain with vemurafenib 0.05; lactate per cell with vemurafenib 2.22; inactive.
Against DSG3 (GeneID 1830), the entry reads cell gain with vemurafenib 0.28; lactate per cell with vemurafenib 0.99; inactive.
After knock-down of DPAGT1 (GeneID 1798) the results were cell gain with vemurafenib 0.92; lactate per cell with vemurafenib 0.26; inactive.
Against COL19A1 (GeneID 1310), the entry reads cell gain with vemurafenib 0.65; lactate per cell with vemurafenib 0.76; inactive.
Depletion of SNW1 (GeneID 22938) came out at: cell gain with vemurafenib 0.18; lactate per cell with vemurafenib 2.12; inactive.
After knock-down of MAGED1 (GeneID 9500), the record shows cell gain with vemurafenib 0.42; lactate per cell with vemurafenib 1.14; inactive.
With knock-down of CACNG8 (GeneID 59283), the record shows cell gain with vemurafenib 0.38; lactate per cell with vemurafenib 1.27; inactive.
GJA1 (GeneID 2697) gave cell gain with vemurafenib 0.8; lactate per cell with vemurafenib 0.94; inactive.
With knock-down of TBC1D7 (GeneID 51256), the record shows cell gain with vemurafenib 0.43; lactate per cell with vemurafenib 0.89; inactive.
For CC2D1B (GeneID 200014), the values are cell gain with vemurafenib 0.89; lactate per cell with vemurafenib 0.76; inactive.
Against KIF6 (GeneID 221458), the values are cell gain with vemurafenib 0.3; lactate per cell with vemurafenib 1.45; inactive.
IL2 (GeneID 3558) showed cell gain with vemurafenib 0.51; lactate per cell with vemurafenib 1.11; inactive.
Silencing of PLA1A (GeneID 51365) gave: cell gain with vemurafenib 0.52; lactate per cell with vemurafenib 1.16; inactive.
Depletion of RAG2 (GeneID 5897) resulted in: cell gain with vemurafenib 0.39; lactate per cell with vemurafenib 1.27; inactive.
With knock-down of NR2E3 (GeneID 10002), the record shows cell gain with vemurafenib 0.47; lactate per cell with vemurafenib 1.52; inactive.
For PNRC2 (GeneID 55629) the deposit lists cell gain with vemurafenib 1.28; lactate per cell with vemurafenib 0.68; inactive.
Knock-down of MCRIP1 (GeneID 348262) gave: cell gain with vemurafenib 0.45; lactate per cell with vemurafenib 0.82; inactive.

6 entries from above, reformatted:
gene | reagent no. | cell gain with vemurafenib | lactate per cell with vemurafenib | outcome
DSG3 (GeneID 1830) | 1 | 0.28 | 0.99 | inactive
DPAGT1 (GeneID 1798) | 1 | 0.92 | 0.26 | inactive
COL19A1 (GeneID 1310) | 1 | 0.65 | 0.76 | inactive
SNW1 (GeneID 22938) | 1 | 0.18 | 2.12 | inactive
MAGED1 (GeneID 9500) | 1 | 0.42 | 1.14 | inactive
CACNG8 (GeneID 59283) | 1 | 0.38 | 1.27 | inactive

Continued.
For ODR4 (GeneID 54953), the entry reads cell gain with vemurafenib 0.25; lactate per cell with vemurafenib 0.32; active.
BCKDK (GeneID 10295) scored cell gain with vemurafenib 0.28; lactate per cell with vemurafenib 1.24; inactive.
After knock-down of BUD23 (GeneID 114049), the record shows cell gain with vemurafenib 0.41; lactate per cell with vemurafenib 0.52; inactive.
CAMTA1 (GeneID 23261) gave cell gain with vemurafenib 0.02; lactate per cell with vemurafenib 1.04; inactive.
After knock-down of FIBCD1 (GeneID 84929), the screen gave cell gain with vemurafenib 0.24; lactate per cell with vemurafenib 0.95; inactive.
With knock-down of MAP3K11 (GeneID 4296) the results were cell gain with vemurafenib 0.12; lactate per cell with vemurafenib 2.08; inactive.
NOL3 (GeneID 8996) showed cell gain with vemurafenib 0.43; lactate per cell with vemurafenib 1.23; inactive.
Depletion of H2AC1 (GeneID 221613) came out at: cell gain with vemurafenib 0.82; lactate per cell with vemurafenib 0.86; inactive.
KRT81 (GeneID 3887) showed cell gain with vemurafenib -0.02; lactate per cell with vemurafenib 1.17; inactive.
Silencing of URI1 (GeneID 8725) resulted in: cell gain with vemurafenib 0.61; lactate per cell with vemurafenib 2.03; inactive.
TAOK1 (GeneID 57551) showed cell gain with vemurafenib 0.65; lactate per cell with vemurafenib 0.71; inactive.
TSKS (GeneID 60385) showed cell gain with vemurafenib 0.55; lactate per cell with vemurafenib 1.5; inactive.
With knock-down of SIPA1L1 (GeneID 26037) the results were cell gain with vemurafenib 0.35; lactate per cell with vemurafenib 0.69; inactive.
Silencing of TOP6BL (GeneID 79703) gave: cell gain with vemurafenib 0.42; lactate per cell with vemurafenib 1.6; inactive.
After knock-down of AAAS (GeneID 8086) the results were cell gain with vemurafenib 0.59; lactate per cell with vemurafenib 1.29; inactive.
Knock-down of PAK5 (GeneID 57144) resulted in: cell gain with vemurafenib 0.49; lactate per cell with vemurafenib 0.6; active.
For MTMR12 (GeneID 54545) the deposit lists cell gain with vemurafenib 0.6; lactate per cell with vemurafenib 0.92; inactive.
Silencing of CFAP47 (GeneID 286464) #1 came out at: cell gain with vemurafenib 0.24; lactate per cell with vemurafenib 1.15; inactive.
After knock-down of CFAP47 (GeneID 286464) #2, the record shows cell gain with vemurafenib 1.05; lactate per cell with vemurafenib 0.79; inactive.
Against CNOT2 (GeneID 4848), the values are cell gain with vemurafenib 0; lactate per cell with vemurafenib 1.31; inactive.
Silencing of TMEM52B (GeneID 120939) resulted in: cell gain with vemurafenib 0.56; lactate per cell with vemurafenib 1.22; inactive.
With knock-down of KIF15 (GeneID 56992), the record shows cell gain with vemurafenib 0.2; lactate per cell with vemurafenib 3.21; inactive.
For RNF138 (GeneID 51444), the values are cell gain with vemurafenib 0.43; lactate per cell with vemurafenib 1.64; inactive.
